From PubChem BioAssay AID1332 (Southern Research Institute, 2008)
In brackets after ≈: the same amount, converted by molar mass. The list shows a part of the results. The main result of the screen is listed elsewhere. These columns were measured beside it and carry no call.

Assay: Confirmatory growth inhibition assay, mycobacterium tuberculosis h37rv, with cytotoxicity (AID 1332);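 as to CC50: Vero cells exposed to compounds for 72 hours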;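 as to IC50: bacteria incubated 7 days before adding Alamar blue readout reagent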
Conditions: M. tuberculosis H37Rv growth inhibition; CC50: measured here: Vero cell cytotoxicity; IC50: measured here: IC50 H37Rv replicates

Row | Structure (SMILES) | IC50 [µg/mL] | CC50 [µg/mL]
1 | COc1cc(-c2ccc(=O)[nH]n2)ccc1OC(F)F | > 20 | –
2 | CCOC(=O)NNc1nncc2ccccc12 | > 20 | –
3 | CCCCN1CCCCC1C(=O)Nc1c(C)cccc1C (stereo not given) | > 20 | –
4 | CC(COc1ccccc1)NC(C)C(O)c1ccc(O)cc1 (stereo not given) | > 20 | –
5 | CC(C)(C)c1ccc(C(O)CCCN2CCC(C(O)(c3ccccc3)c3ccccc3)CC2)cc1 (stereo not given) | 1.33 (≈ 2.82 µM) | 2.54 (≈ 5.39 µM)
6 | CC(=O)[C@H]1CC[C@H]2[C@@H]3CC=C4C[C@@H](O)CC[C@]4(C)[C@H]3CC[C@]12C | > 20 | –
7 | COc1ccc(CC2c3cc(OC)c(OC)cc3CC[N+]2(C)CCC(=O)OCCCCCOC(=O)CC[N+]2(C)CCc3cc(OC)c(OC)cc3C2Cc2ccc(OC)c(OC)c2)cc1OC (stereo not given) | > 20 | –
8 | CN1CCC2=C[C@H](O)[C@H]3OC(=O)c4cc5c(cc4[C@H]3[C@@H]21)OCO5 | > 20 | > 6
9 | CN(C)CCCN1c2ccccc2Sc2ccc(Cl)cc21 | 5.23 (≈ 16.4 µM) | > 6
10 | Cc1cc(=O)n(-c2ccccc2)n1C | > 20 | –
11 | Clc1ccc(COC(Cn2ccnc2)c2ccc(Cl)cc2Cl)c(Cl)c1 (stereo not given) | 1.25 (≈ 3.01 µM) | > 6
12 | C[C@@H]1CN(C2CCC(C#N)(c3ccc(F)cc3)CC2)CC[C@]1(C(=O)O)c1ccccc1 (stereo not given in full) | > 20 | –
13 | NC12CC3CC(CC(C3)C1)C2 | > 20 | –
14 | CN1CCN(C2=Nc3cc(Cl)ccc3Nc3ccccc32)CC1 | > 20 | –
15 | CO[C@@]1(NC(=O)CSCC#N)C(=O)N2C(C(=O)O)=C(CSc3nnnn3C)CS[C@@H]21 | > 20 | –
16 | C[C@@H]1[C@H](O)[C@@H](C)/C=C/C=C/C=C/C=C/C=C/C=C/C=C/[C@H](O[C@@H]2O[C@H](C)[C@@H](O)[C@H](N)[C@@H]2O)C[C@@H]2O[C@](O)(C[C@@H](O)C[C@@H](O)[C@H](O)CC[C@@H](O)C[C@@H](O)CC(=O)O[C@H]1C)C[C@H](O)[C@H]2C(=O)O | > 20 | –
17 | CC(C)NC[C@H](O)COc1ccc(CC(N)=O)cc1 | > 20 | –
18 | COc1ccc(OC)c(C(O)C(C)N)c1 (stereo not given) | > 20 | –
19 | CCC(NC(C)C)C(O)c1ccc(O)c(O)c1 (stereo not given) | > 20 | –
20 | CCC(Cc1c(I)cc(I)c(N)c1I)C(=O)O (stereo not given) | > 20 | –
21 | CN1CCc2cccc3c2[C@H]1Cc1ccc(O)c(O)c1-3 | > 20 | –

Row | Structure (SMILES) | IC50 [µg/mL] | CC50 [µg/mL]
22 | O=c1cc(-c2ccc(O)c(O)c2)oc2cc(O)cc(O)c12 | > 20 | 5.13 (≈ 17.9 µM)
23 | CCC(=O)O[C@H]1CC[C@H]2[C@@H]3CCC4=CC(=O)CC[C@]4(C)[C@H]3CC[C@]12C | > 20 | –
24 | CC(C)(C(=O)c1cccnc1)c1cccnc1 | > 20 | –
25 | CC(=O)N(O)CCCCCNC(=O)CCC(=O)N(O)CCCCCNC(=O)CCC(=O)N(O)CCCCCN | > 20 | 4.57 (≈ 8.16 µM)
26 | CC(=O)O[C@H]1C[C@@]2(C)[C@@H](C[C@@H](O)[C@H]3[C@@]4(C)CC[C@@H](O)[C@@H](C)C4CC[C@@]32C)/C1=C(\CCC=C(C)C)C(=O)O (stereo not given in full) | 0.161 (≈ 0.312 µM) | –
27 | COc1cc(OC)c(C(=O)CCCN2CCCC2)c(OC)c1 | > 20 | –
28 | CCN1C(=O)NC(c2ccccc2)C1=O (stereo not given) | > 20 | –
29 | CN[C@H]1[C@@H](O)[C@H](O[C@H]2[C@@H](O)[C@@H](OC3OC(CN)=CCC3N)[C@H](N)C[C@@H]2N)OC[C@@]1(C)O (stereo not given in full) | > 20 | –
30 | COc1ccccc1N1CCN(CC(O)COc2cccc3ccccc23)CC1 (stereo not given) | > 20 | –
31 | CN1CCCC(CC2c3ccccc3Sc3ccccc32)C1 (stereo not given) | 5.64 (≈ 18.2 µM) | > 6
32 | CC[C@H](CC[C@@H](C)[C@H]1CC[C@H]2[C@@H]3CC=C4C[C@@H](O)CC[C@]4(C)[C@H]3CC[C@]12C)C(C)C | > 20 | –
33 | CCCN(CCC)C(=O)C(CCC(=O)O)NC(=O)c1ccccc1 (stereo not given) | > 20 | –
34 | COc1cc2c(cc1O)C[C@H]1c3c(cc(O)c(OC)c3-2)CCN1C | > 20 | –
35 | C=C1C(=O)O[C@@H]2[C@H]3O[C@]3(C)CC/C=C(\C)CC[C@@H]12 | 0.944 (≈ 3.8 µM) | 3.19 (≈ 12.8 µM)
36 | N[C@@H](Cn1ccc(=O)c(O)c1)C(=O)O | > 20 | –
37 | O=C(CCCN1CCC(n2c(=O)[nH]c3ccccc32)CC1)c1ccc(F)cc1 | > 20 | –
38 | CC(C)(Oc1ccc(Cl)cc1)C(=O)O | > 20 | –
39 | Cn1c(=O)c2[nH]cnc2n(C)c1=O | > 20 | –
40 | Cc1[nH]c(=O)c(C#N)cc1-c1ccncc1 | > 20 | –
41 | OC(c1ccccc1)(c1ccccc1)C1CCNCC1 | > 20 | –
42 | CN1C(C(=O)Nc2ccccn2)=C(O)c2sccc2S1(=O)=O | > 20 | –

Random excerpt: 3 compounds from above, in no set order.
Row | Structure (SMILES) | IC50 [µg/mL] | CC50 [µg/mL]
40 | Cc1[nH]c(=O)c(C#N)cc1-c1ccncc1 | > 20 | –
28 | CCN1C(=O)NC(c2ccccc2)C1=O (stereo not given) | > 20 | –
31 | CN1CCCC(CC2c3ccccc3Sc3ccccc32)C1 (stereo not given) | 5.64 (≈ 18.2 µM) | > 6

In a second layout: 2 of the compounds above
CCOC(=O)NNc1nncc2ccccc12
  IC50 [µg/mL]: > 20
CCC(=O)O[C@H]1CC[C@H]2[C@@H]3CCC4=CC(=O)CC[C@]4(C)[C@H]3CC[C@]12C
  IC50 [µg/mL]: > 20

(continued)

Row | Structure (SMILES) | IC50 [µg/mL] | CC50 [µg/mL]
43 | Cc1ncc([N+](=O)[O-])n1CC(O)CCl (stereo not given) | > 20 | –
44 | C[C@]12CC[C@H]3C(=CCc4cc(O)ccc43)[C@@H]1CCC2=O | > 20 | –
45 | C/C=C/C(=O)N(CC)c1ccccc1C | > 20 | –
46 | C=C[C@H]1CN2CC[C@H]1C[C@@H]2[C@@H](O)c1ccnc2ccc(OC)cc12 | > 20 | –
47 | S=C(NC1CCCCC1)N1CCC(C2C=NC=N2)CC1 (stereo not given) | > 20 | –
48 | C[N+]1(C)CCCC(OC(=O)C(O)(c2ccccc2)c2ccccc2)C1 (stereo not given) | > 20 | –
49 | CO[C@@]1(NC(=O)Cc2cccs2)C(=O)N2C(C(=O)O)=C(COC(N)=O)CS[C@@H]21 | > 20 | –
50 | CN1C2CCC1CC(O)C2 (stereo not given) | > 20 | –
51 | CCCCC(CC)CN1CN(CC(CC)CCCC)CC(C)(N)C1 (stereo not given) | 4.78 (≈ 14.1 µM) | –
52 | NC(N)=NCc1cccc(I)c1 | > 20 | –
53 | CO[C@@H]1[C@@H](OC(N)=O)[C@@H](O)C(Oc2ccc3c(O)c(NC(=O)c4ccc(O)c(CC=C(C)C)c4)c(=O)oc3c2C)OC1(C)C (stereo not given in full) | 1.46 (≈ 2.39 µM) | –
54 | CCN(CC)CCOC(=O)C(c1ccccc1)C1CCCCC1 (stereo not given) | > 20 | –
55 | COc1cc(Cc2cnc(N)nc2N)cc(OC)c1OC | > 20 | –
56 | CN(C)/N=N/c1nc[nH]c1C(N)=O | 0.488 (≈ 2.68 µM) | –
57 | CCCCOC(=O)c1ccc(N)cc1 | > 20 | –
58 | CN[C@@H]1C(O[C@H]2O[C@H](CO)[C@@H](N)[C@H](O)[C@H]2O)O[C@H]2C[C@@H](N)[C@@H](O[C@H]3[C@H](O)[C@@H](O)[C@H](N)C[C@@H]3N)OC2[C@@H]1O (stereo not given in full) | 2.38 (≈ 4.41 µM) | –
59 | O=C1NCN(c2ccccc2)C12CCN(CCCC(c1ccc(F)cc1)c1ccc(F)cc1)CC2 | 2 (≈ 4.21 µM) | > 6
60 | CCCC(C)(COC(N)=O)COC(=O)NC(C)C (stereo not given) | > 20 | –
61 | C[C@H]1[C@H](C)CC[C@]2(C(=O)O[C@@H]3O[C@H](COC4O[C@H](CO)[C@@H](OC5O[C@@H](C)[C@H](O)[C@@H](O)[C@H]5O)[C@H](O)[C@H]4O)[C@@H](O)[C@H](O)[C@H]3O)CC[C@]3(C)C(=CC[C@@H]4[C@@]5(C)C[C@@H](O)[C@H](O)[C@@](C)(CO)C5CC[C@]43C)[C@H]12 (stereo not given in full) | > 20 | –
